{"source": "paper PMC4906169", "key": {"[1]": {"target": "T1, Cellulose synthase CesA1, BiFC fusion (Arabidopsis thaliana) (UniProt O48946)", "T1 sequence": "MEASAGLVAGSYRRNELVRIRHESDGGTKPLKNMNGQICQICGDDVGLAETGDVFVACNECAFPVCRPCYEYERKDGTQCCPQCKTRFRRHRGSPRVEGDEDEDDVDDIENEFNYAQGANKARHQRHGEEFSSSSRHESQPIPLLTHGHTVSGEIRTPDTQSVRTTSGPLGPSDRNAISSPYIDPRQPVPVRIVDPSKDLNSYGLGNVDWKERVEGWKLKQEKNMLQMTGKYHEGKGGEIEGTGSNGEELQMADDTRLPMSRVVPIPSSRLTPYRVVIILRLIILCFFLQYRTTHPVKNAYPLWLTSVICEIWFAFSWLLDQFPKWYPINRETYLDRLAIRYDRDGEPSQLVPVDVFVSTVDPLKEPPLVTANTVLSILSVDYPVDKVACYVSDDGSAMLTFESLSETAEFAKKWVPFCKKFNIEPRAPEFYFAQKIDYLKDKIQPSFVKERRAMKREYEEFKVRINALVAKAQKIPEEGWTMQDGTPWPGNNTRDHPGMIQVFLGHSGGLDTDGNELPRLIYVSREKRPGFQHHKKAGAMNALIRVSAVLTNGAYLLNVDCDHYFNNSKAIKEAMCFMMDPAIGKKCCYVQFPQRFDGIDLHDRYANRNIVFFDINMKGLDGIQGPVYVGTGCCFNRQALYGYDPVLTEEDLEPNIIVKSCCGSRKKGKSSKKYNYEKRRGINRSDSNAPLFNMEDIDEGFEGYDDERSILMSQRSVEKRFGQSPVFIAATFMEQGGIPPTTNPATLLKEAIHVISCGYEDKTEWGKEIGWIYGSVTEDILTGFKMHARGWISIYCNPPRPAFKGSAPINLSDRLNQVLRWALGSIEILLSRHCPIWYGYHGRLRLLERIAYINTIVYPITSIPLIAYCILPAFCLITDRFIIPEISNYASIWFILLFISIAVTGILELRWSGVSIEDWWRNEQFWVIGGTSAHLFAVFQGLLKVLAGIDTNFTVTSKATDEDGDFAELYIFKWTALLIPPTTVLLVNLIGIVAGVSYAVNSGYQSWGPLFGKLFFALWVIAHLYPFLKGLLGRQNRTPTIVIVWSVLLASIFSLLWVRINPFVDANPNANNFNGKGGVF", "assay": "split reporter; BiFC with Yn/Yc halves of VENUS fused to the N-termini; transient co-expression in N. benthamiana epidermal leaf cells, imaged by confocal microscopy 62 h after infiltration"}, "[2]": {"target": "T2, Cellulose synthase CesA3, BiFC fusion (Arabidopsis thaliana) (UniProt Q941L0)", "T2 sequence": "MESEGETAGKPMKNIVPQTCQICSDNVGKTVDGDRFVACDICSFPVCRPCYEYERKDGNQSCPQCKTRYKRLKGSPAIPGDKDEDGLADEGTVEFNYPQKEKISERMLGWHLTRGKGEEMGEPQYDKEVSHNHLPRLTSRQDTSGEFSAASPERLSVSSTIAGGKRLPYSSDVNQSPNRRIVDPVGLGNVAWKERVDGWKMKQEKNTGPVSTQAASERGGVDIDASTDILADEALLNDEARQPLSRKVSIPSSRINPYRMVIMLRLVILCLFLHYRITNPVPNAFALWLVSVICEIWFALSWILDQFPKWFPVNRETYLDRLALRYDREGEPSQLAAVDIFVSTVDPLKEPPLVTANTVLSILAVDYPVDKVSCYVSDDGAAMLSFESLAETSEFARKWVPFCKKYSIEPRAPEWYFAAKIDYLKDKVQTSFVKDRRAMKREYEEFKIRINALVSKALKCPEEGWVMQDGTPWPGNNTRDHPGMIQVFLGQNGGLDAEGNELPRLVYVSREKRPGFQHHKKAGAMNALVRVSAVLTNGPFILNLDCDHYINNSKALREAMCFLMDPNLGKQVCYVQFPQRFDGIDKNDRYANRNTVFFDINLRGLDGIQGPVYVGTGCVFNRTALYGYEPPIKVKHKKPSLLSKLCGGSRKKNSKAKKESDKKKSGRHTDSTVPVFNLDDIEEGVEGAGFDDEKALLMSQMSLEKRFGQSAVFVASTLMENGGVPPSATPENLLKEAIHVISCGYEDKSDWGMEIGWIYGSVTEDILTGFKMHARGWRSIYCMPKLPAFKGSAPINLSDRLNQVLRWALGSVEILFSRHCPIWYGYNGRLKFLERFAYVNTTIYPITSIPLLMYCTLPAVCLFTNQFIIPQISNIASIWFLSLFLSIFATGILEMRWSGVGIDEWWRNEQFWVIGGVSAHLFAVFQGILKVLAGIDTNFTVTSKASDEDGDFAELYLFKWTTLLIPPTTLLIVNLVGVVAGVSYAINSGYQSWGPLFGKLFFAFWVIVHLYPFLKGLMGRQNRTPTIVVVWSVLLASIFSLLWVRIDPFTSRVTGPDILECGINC", "assay": "split reporter; BiFC with Yn/Yc halves of VENUS fused to the N-termini; transient co-expression in N. benthamiana epidermal leaf cells, imaged by confocal microscopy 62 h after infiltration"}}, "note": "Results are given in words; binding and its absence hold for the method and conditions named. Binding seen in cells or lysates may run through a third protein. Where a sequence is shown, tags or fusion partners need not be part of it.", "data": [{"binder": "Got1p Arabidopsis homologue, BiFC fusion (protein, UniProt Q6NMM1 1-140) MASLEMNDLKKIGLGLTGFGVFFTFLGVIFVFDKGLIAMGNILFLAGVTLTIGINPAIQFFTKRQNFKGTISFGLGFLLVVFGWPIFGLLLESYGFLVLFSGFWPTLAVFLQRIPLLGWLLQQPYIRSLLDRYRGRRVPV", "values": [{"measurement": "binding", "setting": "[1]", "value": "no binding"}, {"measurement": "binding", "setting": "[2]", "value": "no binding"}]}]}
